Laboratory results published in article PMC9688820.
These are yes or no findings as the source states them, for the method shown. Binding seen in cells or lysates may run through a third protein. Some results given as binding are weak or reduced against the parent protein; the word gives no strength. Each block holds one molecule with its values, some of them ahead of it.

Sequences of proteins named here, by UniProt entry; tags and fusion partners are left off.
UniProt P10227: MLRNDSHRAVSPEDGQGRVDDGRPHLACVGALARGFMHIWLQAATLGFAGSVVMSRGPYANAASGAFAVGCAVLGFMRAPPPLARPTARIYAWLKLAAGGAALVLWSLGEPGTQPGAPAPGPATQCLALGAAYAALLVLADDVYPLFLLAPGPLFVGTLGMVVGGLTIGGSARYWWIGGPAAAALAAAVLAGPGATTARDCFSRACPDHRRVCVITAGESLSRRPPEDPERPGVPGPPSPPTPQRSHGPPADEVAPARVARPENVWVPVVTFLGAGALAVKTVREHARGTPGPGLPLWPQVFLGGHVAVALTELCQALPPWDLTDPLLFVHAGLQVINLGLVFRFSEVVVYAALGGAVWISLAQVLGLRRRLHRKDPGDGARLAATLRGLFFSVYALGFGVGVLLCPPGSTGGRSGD
UniProt P36404: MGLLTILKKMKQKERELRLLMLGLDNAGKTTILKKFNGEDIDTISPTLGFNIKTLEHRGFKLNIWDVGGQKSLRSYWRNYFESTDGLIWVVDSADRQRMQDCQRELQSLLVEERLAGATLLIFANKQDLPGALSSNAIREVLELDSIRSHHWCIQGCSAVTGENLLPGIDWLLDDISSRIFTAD

How the values were obtained:
[1] = molecular target: HSV-1 UL43 protein, FLAG-tagged wild type (UL43-WT-FLAG) (herpes simplex virus 1 (HSV-1)) (UniProt P10227); assay: co-IP; mitochondrial proteins of transfected HUVEC cells (UL43-WT, UL43-Y144A, Mock; with or without ARL2-siRNA), 48 h after transfection, NP40 lysis buffer (50 mM Tris-HCl pH 8.0, 120 mM NaCl, 0.5% NP40, 1 mM PMSF); anti-FLAG, anti-ARL2 or IgG at 4 °C overnight, protein G agarose beads; Western blot
[2] = molecular target: ARF-like 2 (ARL2) GTPase (human (endogenous in HUVEC)) (UniProt P36404); assay: as above

Molecule: ARF-like 2 (ARL2) GTPase (from UniProt P36404 1-184)
binding [1]: binds

binding [2]: binds
B1: ANT1 (SLC25A4), adenine nucleotide translocator protein (protein, UniProt P12235 1-298)
chain: MGDHAWSFLKDFLAGGVAAAVSKTAVAPIERVKLLLQVQHASKQISAEKQYKGIIDCVVRIPKEQGFLSFWRGNLANVIRYFPTQALNFAFKDKYKQLFLGGVDRHKQFWRYFAGNLASGGAAGATSLCFVYPLDFARTRLAADVGKGAAQREFHGLGDCIIKIFKSDGLRGLYQGFNVSVQGIIIYRAAYFGVYDTAKGMLPDPKNVHIFVSWMIAQSVTAVAGLVSYPFDTVRRRMMMQSGRKGADIMYTGTVDCWRKIAKDEGAKAFFKGAWSNVLRGMGGAFVLVLYDEIKKYV
